Assay results published in publication PMC4197242.
No constants are given. Whether binding was seen depends on the method and setting. Binding seen in cells or lysates may run through a third protein. Some results given as binding are weak or reduced against the parent protein; the word gives no strength.

Molecular target: T1, peroxisomal PEX7 receptor (human (endogenous in SH-EP)) (UniProt O00628)
T1 sequence: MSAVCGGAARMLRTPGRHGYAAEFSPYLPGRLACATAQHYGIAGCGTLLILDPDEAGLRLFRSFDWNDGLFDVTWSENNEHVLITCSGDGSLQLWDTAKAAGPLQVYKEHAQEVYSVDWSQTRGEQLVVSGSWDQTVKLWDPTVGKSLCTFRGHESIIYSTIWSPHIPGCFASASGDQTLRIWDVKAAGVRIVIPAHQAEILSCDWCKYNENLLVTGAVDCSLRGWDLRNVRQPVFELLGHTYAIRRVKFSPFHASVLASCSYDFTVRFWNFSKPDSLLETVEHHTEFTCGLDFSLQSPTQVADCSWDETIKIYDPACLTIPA
Experiment: co-IP; Pierce Crosslink Magnetic IP/Co-IP kit; 5 ug PEX7 antibody covalently cross-linked to 25 ul protein A/G magnetic beads, incubated with extracts of SH-EP/tetDEPP cells treated with 200 ng/ml doxy for 24 hours; low-pH elution; immunoblot for PEX7 and DEPP; beads without antibody as control (IP Ctr)

B1: Decidual Protein induced by Progesterone (DEPP) (protein, UniProt Q9NTK1 1-212)
chain: MRSRLLLSVAHLPTIRETTEEMLLGGPGQEPPPSPSLDDYVRSISRLAQPTSVLDKATAQGQPRPPHRPAQACRKGRPAVSLRDITARFSGQQPTLPMADTVDPLDWLFGESQEKQPSQRDLPRRTGPSAGLWGPHRQMDSSKPMGAPRGRLCEARMPGHSLARPPQDGQQSSDLRSWTFGQSAQAMASRHRPRPSSVLRTLYSHLPVIHEL
In the case of B1, the binding is reported as “binds”.
